Test results from the supplement of paper PMC12819154, “High-throughput peptide-centric local stability assay extends protein–ligand identification to membrane proteins, tissues and bacteria” (Nature Structural & Molecular Biology, 2025).
This is one part of the list. Most values lie at the level of the controls, where differences are scatter.

By UniProt entry, the sequences of proteins in these tests, tags left out. Where a name states a change or a piece, a line headed by the entry shows the natural chain unless it says otherwise.
UniProt Q9BRZ2: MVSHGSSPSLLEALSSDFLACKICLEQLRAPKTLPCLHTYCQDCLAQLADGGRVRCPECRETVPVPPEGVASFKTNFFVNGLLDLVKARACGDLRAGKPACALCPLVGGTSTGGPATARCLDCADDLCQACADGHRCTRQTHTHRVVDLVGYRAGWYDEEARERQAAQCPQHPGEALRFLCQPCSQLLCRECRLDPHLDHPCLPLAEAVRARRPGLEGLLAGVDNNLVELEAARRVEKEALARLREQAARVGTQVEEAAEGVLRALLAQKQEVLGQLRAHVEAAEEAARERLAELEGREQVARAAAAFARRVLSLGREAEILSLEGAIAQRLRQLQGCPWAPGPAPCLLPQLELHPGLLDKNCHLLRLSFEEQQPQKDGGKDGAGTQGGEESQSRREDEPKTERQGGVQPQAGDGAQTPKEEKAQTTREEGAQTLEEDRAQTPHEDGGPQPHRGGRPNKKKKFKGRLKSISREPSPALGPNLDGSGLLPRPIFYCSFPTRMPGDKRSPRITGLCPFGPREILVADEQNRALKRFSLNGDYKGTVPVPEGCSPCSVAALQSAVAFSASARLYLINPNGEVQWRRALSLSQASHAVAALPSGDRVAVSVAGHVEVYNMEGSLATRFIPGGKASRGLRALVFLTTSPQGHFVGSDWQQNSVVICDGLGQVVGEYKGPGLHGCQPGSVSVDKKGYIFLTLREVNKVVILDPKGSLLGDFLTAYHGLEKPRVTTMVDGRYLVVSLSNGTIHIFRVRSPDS
UniProt Q99961: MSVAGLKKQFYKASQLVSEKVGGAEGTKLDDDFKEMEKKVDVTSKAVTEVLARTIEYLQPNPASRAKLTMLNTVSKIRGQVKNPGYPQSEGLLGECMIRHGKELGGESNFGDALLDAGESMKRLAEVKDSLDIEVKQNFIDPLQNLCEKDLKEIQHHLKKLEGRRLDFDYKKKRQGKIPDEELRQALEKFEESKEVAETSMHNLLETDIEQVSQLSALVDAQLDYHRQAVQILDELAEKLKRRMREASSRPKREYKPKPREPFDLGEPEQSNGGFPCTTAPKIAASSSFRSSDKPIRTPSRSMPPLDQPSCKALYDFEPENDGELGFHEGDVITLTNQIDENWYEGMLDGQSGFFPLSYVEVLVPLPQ
UniProt Q99741: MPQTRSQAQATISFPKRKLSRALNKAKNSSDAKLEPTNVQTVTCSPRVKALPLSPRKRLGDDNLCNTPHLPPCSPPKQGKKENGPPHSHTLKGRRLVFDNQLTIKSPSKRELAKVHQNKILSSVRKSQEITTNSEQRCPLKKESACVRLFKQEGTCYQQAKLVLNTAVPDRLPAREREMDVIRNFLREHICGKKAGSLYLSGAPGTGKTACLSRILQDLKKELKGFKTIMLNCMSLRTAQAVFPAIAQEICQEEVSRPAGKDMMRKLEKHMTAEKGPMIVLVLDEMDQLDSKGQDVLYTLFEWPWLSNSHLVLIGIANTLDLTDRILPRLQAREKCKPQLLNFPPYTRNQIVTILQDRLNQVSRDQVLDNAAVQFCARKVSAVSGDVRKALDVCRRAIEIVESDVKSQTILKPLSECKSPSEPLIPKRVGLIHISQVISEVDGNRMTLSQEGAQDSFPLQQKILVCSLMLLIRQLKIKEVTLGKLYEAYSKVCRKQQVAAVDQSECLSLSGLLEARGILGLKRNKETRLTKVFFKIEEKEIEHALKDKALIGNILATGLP
UniProt Q99719: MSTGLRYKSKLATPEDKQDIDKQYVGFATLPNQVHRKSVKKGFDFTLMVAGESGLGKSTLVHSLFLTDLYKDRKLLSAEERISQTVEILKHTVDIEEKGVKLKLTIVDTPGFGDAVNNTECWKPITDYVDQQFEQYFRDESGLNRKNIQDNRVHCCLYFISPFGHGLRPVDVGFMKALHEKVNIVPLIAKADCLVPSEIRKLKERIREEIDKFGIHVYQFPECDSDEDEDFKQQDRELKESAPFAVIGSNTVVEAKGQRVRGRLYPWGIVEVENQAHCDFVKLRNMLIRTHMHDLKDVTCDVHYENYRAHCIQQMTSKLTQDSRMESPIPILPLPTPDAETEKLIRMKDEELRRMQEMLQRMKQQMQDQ
UniProt Q99584: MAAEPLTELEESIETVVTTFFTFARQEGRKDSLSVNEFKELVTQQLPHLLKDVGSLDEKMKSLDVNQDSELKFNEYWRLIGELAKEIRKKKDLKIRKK
UniProt Q9BVC4, whole entry: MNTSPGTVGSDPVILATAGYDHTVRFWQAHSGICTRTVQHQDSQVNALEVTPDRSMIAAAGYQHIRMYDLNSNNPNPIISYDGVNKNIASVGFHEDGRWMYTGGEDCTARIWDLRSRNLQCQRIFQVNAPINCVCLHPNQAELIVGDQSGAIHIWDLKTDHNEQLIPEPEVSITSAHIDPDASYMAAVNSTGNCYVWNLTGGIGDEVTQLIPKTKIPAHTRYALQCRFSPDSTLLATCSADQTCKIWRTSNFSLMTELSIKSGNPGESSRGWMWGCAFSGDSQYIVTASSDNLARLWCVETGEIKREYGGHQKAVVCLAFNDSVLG
UniProt Q9BV40: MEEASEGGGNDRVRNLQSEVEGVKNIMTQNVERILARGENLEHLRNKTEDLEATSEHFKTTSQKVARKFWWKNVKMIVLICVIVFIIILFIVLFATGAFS
UniProt Q99956: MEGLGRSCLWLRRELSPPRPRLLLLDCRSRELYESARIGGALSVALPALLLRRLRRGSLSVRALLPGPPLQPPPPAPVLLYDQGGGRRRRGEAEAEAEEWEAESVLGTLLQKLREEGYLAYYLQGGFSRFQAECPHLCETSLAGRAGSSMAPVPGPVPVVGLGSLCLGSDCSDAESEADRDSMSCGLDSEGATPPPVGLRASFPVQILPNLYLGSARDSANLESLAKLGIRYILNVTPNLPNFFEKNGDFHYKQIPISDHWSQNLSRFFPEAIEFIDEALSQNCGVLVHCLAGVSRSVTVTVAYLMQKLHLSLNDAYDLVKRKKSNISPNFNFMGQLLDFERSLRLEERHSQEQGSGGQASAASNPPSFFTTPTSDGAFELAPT
UniProt Q9BTX1: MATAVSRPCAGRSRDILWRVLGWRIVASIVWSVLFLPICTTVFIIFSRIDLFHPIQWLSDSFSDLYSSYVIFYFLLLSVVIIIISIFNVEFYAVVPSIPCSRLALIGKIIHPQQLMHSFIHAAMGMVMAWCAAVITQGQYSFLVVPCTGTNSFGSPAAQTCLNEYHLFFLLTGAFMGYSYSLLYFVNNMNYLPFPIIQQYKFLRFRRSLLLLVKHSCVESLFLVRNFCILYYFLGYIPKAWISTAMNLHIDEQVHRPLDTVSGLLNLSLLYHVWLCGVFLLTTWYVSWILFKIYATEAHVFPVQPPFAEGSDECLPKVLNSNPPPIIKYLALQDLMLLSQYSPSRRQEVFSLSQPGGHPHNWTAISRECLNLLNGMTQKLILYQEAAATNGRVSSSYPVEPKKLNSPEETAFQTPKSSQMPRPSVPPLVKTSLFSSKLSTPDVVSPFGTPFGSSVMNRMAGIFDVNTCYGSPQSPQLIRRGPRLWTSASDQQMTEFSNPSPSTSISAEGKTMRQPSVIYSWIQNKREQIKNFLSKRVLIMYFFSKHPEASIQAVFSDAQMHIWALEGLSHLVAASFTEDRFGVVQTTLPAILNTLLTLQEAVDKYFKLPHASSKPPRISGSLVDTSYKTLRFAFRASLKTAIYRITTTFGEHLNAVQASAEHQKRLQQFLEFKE
UniProt Q9BV20: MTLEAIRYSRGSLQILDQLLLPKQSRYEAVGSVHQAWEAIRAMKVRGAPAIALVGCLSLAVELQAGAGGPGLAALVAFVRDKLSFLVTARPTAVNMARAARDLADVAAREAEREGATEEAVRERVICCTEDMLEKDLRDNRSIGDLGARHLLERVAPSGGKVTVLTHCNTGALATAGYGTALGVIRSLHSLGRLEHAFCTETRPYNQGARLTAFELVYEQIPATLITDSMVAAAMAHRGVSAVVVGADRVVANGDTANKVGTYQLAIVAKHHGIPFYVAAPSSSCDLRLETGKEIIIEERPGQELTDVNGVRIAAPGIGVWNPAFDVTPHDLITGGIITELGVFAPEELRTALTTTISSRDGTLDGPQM

These targets were tested with CN[C@@H]1C[C@H]2O[C@@](C)([C@@H]1OC)n1c3ccccc3c3c4c(c5c6ccccc6n2c5c31)C(=O)NC4 [staurosporine] (assay: log2 fold change of tryptic peptide abundance, ligand vs vehicle (limited proteolysis) (log2 ratio); higher = more trypsin-susceptible (destabilized)). Settings: ligand concentration: 20 uM; sample: K562 cleared lysate; digestion: 4 min, 22 C (HT-PELSA RT4min, Orbitrap Astral).
“TRIM56 (peptide sequence: GSLLGDFLTAYHGLEKPR, peptide start residue: 709) (UniProt Q9BRZ2)” showed a log2 fold change of 0.432.
In the case of “SH3GL1 (peptide sequence: DSLDIEVK, peptide start residue: 129) (UniProt Q99961)”, the log2 fold change is reported as -0.0871.
With “CDC6 (peptide sequence: AIEIVESDVK, peptide start residue: 397) (UniProt Q99741)” the log2 fold change was -0.426.
“SEPTIN5 (peptide sequence: QYVGFATLPNQVHRK, peptide start residue: 23) (UniProt Q99719)” showed a log2 fold change of -0.121.
For “S100A13 (peptide sequence: ELVTQQLPHLLKDVGSLDEK, peptide start residue: 40) (UniProt Q99584)”, the log2 fold change was 0.675.
“UniProt Q9BVC4 (peptide sequence: NIASVGFHEDGR, peptide start residue: 87)” gave a log2 fold change of -0.181.
“VAMP8 (peptide sequence: NKTEDLEATSEHFK, peptide start residue: 46) (UniProt Q9BV40)” showed a log2 fold change of -0.0691.
With “DUSP9 (peptide sequence: ASFPVQILPNLYLGSAR, peptide start residue: 201) (UniProt Q99956)” the log2 fold change was -0.196.
Work on “UniProt Q9BTX1 (peptide sequence: VSSSYPVEPK, peptide start residue: 393)” yielded a log2 fold change of -0.0846.
Work on “MRI1 (peptide sequence: DKLSFLVTARPTAVNMAR, peptide start residue: 81) (UniProt Q9BV20)” yielded a log2 fold change of 0.254.
